From the supplement of paper PMC10849652
The list shows a part of the results.

Sequences of proteins named here, by UniProt entry; tags and fusion partners are left off. A change or cut given only in a name is not applied to a line headed by its entry.
UniProt Q5W0B1: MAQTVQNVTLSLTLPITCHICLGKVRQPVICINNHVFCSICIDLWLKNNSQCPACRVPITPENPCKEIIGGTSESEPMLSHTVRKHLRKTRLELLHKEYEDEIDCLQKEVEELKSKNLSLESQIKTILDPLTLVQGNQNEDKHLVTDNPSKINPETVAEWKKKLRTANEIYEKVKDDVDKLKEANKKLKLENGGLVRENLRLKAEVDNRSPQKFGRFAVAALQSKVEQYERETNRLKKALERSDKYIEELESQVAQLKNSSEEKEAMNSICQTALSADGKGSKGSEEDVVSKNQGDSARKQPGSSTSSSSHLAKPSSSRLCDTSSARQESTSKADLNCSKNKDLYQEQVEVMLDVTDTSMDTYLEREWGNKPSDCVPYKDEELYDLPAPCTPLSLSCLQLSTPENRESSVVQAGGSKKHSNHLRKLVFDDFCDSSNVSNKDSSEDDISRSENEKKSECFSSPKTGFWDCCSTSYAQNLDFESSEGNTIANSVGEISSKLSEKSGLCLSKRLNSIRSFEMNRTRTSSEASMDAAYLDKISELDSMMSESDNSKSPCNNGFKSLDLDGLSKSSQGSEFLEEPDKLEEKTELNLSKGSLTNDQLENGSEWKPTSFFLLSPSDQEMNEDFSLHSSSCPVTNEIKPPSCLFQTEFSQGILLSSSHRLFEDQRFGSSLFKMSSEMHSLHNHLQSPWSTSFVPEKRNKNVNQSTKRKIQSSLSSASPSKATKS
UniProt Q02218: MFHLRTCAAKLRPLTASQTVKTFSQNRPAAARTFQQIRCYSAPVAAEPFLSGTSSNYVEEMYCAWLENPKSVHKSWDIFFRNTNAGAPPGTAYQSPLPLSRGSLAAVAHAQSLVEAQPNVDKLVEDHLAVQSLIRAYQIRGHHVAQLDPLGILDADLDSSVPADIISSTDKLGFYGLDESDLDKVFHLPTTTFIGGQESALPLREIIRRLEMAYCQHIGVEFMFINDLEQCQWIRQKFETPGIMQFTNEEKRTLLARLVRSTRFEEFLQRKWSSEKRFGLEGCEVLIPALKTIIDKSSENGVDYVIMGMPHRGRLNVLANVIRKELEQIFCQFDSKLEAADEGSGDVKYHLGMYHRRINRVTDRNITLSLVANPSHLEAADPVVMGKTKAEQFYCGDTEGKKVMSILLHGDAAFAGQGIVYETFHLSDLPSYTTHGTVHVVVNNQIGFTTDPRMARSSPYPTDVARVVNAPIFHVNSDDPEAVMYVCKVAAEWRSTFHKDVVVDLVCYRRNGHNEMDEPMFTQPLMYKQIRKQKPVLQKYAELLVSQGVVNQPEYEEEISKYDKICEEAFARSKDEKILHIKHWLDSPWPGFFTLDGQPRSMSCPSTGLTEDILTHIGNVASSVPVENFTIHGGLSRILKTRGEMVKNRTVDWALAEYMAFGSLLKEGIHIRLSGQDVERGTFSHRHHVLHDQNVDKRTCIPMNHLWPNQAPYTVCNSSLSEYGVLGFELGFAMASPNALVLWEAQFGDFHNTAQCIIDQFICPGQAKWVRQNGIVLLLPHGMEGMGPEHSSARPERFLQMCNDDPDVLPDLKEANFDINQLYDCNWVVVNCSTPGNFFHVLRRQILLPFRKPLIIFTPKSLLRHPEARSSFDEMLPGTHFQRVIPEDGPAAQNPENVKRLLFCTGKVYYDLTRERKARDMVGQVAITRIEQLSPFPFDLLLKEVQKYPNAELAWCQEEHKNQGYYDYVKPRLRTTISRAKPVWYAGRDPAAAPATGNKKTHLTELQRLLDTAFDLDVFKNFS
UniProt Q9BRP4: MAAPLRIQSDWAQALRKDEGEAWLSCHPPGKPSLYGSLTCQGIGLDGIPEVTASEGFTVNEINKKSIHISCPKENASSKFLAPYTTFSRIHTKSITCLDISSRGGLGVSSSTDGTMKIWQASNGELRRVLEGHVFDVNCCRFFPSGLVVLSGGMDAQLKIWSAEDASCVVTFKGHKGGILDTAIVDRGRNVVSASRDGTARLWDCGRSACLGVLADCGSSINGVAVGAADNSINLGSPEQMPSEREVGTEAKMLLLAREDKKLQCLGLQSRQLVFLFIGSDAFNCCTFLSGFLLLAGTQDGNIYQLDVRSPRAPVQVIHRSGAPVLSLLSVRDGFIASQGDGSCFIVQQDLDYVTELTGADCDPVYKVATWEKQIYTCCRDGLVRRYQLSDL
UniProt Q99497, whole entry, looked up: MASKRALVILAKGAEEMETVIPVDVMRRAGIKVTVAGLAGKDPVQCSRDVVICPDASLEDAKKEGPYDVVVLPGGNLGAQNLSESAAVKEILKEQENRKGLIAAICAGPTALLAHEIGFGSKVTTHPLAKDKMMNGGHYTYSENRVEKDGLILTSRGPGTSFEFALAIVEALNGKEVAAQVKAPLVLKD
UniProt O75459: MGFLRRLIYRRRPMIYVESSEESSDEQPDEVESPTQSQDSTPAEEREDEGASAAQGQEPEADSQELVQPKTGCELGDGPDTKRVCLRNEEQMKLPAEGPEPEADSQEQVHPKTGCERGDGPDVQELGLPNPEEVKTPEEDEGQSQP
UniProt Q9NZT2: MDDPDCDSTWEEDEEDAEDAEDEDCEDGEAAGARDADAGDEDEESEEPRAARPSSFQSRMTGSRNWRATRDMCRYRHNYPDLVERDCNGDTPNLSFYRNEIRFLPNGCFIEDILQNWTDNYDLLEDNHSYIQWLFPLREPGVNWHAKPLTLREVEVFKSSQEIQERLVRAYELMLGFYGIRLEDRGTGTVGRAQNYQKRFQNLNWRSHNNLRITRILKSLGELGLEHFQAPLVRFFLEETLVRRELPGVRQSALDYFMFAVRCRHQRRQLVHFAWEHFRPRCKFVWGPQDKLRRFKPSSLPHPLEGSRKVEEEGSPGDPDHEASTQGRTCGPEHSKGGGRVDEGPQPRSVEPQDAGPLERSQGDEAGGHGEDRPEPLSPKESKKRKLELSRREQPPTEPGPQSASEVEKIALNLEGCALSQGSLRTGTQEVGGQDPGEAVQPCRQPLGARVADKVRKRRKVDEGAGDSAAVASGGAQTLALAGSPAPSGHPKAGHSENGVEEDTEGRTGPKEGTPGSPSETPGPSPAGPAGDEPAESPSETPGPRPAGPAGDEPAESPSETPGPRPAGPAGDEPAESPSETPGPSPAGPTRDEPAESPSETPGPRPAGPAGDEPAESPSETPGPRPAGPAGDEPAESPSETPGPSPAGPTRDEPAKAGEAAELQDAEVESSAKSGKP
UniProt Q9H813: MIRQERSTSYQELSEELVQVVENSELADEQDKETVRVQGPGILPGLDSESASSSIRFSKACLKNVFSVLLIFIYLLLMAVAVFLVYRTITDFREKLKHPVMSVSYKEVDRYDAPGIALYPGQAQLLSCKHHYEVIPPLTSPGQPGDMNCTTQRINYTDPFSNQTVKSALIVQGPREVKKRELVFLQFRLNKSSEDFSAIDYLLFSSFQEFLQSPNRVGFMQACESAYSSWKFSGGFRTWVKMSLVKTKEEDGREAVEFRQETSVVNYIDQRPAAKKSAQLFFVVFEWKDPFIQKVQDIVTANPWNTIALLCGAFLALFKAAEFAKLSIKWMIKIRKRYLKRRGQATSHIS
UniProt P52948: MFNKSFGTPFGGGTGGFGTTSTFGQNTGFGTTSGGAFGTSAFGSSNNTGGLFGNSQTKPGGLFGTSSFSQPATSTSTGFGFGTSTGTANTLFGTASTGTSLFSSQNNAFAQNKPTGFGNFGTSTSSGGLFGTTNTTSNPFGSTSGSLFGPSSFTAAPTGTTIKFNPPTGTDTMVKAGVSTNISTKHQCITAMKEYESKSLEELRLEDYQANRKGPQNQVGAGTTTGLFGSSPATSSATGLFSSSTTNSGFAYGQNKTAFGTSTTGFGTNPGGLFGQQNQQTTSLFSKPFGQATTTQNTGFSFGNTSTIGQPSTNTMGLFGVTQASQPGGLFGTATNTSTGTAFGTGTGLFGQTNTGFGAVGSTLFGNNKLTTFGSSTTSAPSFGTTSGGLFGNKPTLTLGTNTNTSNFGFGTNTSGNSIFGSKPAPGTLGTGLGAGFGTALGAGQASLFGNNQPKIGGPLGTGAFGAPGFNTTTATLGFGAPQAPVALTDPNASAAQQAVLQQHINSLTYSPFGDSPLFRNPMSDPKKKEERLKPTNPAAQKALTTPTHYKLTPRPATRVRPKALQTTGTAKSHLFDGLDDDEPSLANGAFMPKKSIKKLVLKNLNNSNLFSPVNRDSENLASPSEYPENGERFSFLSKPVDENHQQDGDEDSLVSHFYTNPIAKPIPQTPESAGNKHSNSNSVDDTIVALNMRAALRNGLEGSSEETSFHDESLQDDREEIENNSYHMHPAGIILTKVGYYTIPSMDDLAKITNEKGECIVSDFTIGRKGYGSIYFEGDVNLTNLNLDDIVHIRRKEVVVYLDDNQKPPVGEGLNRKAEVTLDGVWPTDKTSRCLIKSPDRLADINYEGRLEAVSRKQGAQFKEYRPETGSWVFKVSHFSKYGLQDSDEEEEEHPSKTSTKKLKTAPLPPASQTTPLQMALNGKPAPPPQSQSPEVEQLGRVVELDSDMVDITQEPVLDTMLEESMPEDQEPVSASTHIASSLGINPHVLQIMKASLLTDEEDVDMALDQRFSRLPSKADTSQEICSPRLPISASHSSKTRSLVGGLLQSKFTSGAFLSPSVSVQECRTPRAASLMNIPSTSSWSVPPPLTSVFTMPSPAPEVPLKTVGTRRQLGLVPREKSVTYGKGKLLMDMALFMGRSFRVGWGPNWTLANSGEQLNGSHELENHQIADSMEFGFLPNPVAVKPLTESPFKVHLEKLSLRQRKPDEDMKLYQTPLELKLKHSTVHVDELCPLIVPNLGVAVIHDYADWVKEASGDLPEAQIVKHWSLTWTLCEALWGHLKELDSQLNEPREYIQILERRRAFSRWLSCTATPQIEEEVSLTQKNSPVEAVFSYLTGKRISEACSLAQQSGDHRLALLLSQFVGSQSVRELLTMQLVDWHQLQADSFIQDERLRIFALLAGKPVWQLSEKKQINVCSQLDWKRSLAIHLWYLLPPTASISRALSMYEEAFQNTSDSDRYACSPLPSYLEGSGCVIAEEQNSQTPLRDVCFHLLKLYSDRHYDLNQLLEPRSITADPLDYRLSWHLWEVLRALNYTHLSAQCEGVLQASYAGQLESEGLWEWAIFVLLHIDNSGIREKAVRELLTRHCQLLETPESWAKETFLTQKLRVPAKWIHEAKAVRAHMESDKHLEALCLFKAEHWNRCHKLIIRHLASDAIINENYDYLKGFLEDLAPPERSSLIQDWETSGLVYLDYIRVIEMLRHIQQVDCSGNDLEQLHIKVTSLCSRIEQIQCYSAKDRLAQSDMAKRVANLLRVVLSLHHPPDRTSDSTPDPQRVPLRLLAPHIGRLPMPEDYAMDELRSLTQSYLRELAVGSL
UniProt Q9NTK5, whole entry, looked up: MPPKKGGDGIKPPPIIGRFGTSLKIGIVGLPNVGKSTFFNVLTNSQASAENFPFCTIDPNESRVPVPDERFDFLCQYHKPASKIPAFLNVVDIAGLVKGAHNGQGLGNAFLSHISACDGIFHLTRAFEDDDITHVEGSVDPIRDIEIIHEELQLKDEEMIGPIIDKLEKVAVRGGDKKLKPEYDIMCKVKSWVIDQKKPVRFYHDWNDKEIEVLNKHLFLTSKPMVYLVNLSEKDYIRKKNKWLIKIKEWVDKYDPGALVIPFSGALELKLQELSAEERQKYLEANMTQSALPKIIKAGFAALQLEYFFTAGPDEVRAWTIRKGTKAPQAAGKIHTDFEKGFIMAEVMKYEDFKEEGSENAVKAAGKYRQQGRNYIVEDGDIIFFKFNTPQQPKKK
UniProt Q96RD7, whole entry, looked up: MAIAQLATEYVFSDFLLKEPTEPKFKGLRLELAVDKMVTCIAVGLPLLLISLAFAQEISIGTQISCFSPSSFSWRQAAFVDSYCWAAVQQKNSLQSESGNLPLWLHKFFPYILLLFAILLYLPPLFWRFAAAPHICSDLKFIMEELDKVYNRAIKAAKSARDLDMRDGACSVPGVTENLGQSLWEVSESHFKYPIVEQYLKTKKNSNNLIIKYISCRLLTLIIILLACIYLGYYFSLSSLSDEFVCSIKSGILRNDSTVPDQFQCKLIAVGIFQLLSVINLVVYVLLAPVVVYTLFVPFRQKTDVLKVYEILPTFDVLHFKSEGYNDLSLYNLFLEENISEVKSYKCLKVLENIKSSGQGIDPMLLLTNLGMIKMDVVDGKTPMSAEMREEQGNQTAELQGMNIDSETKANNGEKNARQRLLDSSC
UniProt P04181: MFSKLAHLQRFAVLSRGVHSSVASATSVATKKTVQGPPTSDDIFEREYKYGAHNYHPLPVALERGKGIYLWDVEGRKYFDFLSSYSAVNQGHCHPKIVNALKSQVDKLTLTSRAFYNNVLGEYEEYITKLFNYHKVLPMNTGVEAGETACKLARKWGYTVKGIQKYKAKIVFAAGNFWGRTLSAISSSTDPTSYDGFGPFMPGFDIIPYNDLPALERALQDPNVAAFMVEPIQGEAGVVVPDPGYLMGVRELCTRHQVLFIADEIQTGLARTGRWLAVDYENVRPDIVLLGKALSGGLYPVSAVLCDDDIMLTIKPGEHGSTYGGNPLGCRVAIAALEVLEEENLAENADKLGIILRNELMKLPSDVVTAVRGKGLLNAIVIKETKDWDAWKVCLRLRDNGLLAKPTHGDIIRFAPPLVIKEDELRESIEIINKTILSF

What follows are targets tested with CC(C)C1=C2N=C(C=C(N2N=C1)NCC3=CC=CC=C3)NCCCCCCN (assay: log2 fold change, soluble protein after heating vs DMSO (PISA); higher = thermal stabilisation; K562 lysate, 10 uM; active = over 0.2 and 3.5 SD of the protein, either way, in both replicates (recomputed)).
In short: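 Following dounce homogenisation of K562 pellets in PBS pH 7.4 with 1 mM MgCl2, crude extract at 1 mg/mL protein was incubated for 30 min with 10 μM compound. Aliquots were then heated for 3 min over 48°C-58°C and pooled, NP-40 was added to 0.5% at 4°C, and soluble protein was recovered as the supernatant at 21,000xg for 90 min. Channel-sum-equalised TMTpro 16plex LC-MS/MS quantified this protein. Each value, from duplicates, is a log-two fold change in thermal stability relative to solvent controls.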

log2 fold change, inactive:
OBI1 (UniProt Q5W0B1) -0.046, OBSL1 (UniProt O75147) 0.049, OGDH (UniProt Q02218) -0.032, PAAF1 (UniProt Q9BRP4) -0.037, OS9 (UniProt Q13438) -0.02, PARK7 (UniProt Q99497) 0.006, PAGE1 (UniProt O75459) -0.003, OSBPL3 isoform 2 (UniProt Q9H4L5) -0.033, PAICS (UniProt E9PBS1) -0.133, OSTF1 (UniProt Q92882) -0.006, PAIP1 (UniProt Q9H074) -0.006, OGFOD1 (UniProt Q8N543) -0.052, P4HB (UniProt P07237) 0.006, OGFR (UniProt Q9NZT2) -0.008, OTUD4 (UniProt Q01804) 0.003, PACC1 (UniProt Q9H813) -0.163, NUP98 (UniProt P52948) -0.037, OCRL (UniProt Q01968) 0.044, OXR1 (UniProt Q8N573) -0.009, PARG (UniProt Q86W56) -0.025, PARD3 (UniProt Q8TEW0) 0.001, OSBPL6 isoform 5 (UniProt Q9BZF3) 0.098, OLA1 (UniProt Q9NTK5) 0.02, P4HA1 (UniProt P13674) 0.011, PANX1 (UniProt Q96RD7) -0.052, OPLAH (UniProt O14841) -0.022, OIP5 (UniProt O43482) 0.005, OXCT1 (UniProt P55809) -0.012, OSBPL11 (UniProt Q9BXB4) -0.011, NUP214 (UniProt P35658) -0.003, PARL (UniProt Q9H300) -0.013, OAT (UniProt P04181) 0, OGA (UniProt O60502) -0.025, OCIAD1 (UniProt Q9NX40) -0.008
